Laboratory results published in PubChem BioAssay AID1439 (NMMLSC, 2008).
The campaign covered roughly 220,000 compounds. About 770 (0.35%) were called active. Inconclusive means that the source gave no clear call. Such entries were picked first, then a sample of the others. Cut-off read from the data, not from the text of the source: active = binding response below about 49% or above about 150%; inconclusive = no clear call, values can overlap the other calls; inactive = in between.

The chains behind the UniProt entries cited, without tags or fusion partners.
UniProt P09471, whole entry, looked up: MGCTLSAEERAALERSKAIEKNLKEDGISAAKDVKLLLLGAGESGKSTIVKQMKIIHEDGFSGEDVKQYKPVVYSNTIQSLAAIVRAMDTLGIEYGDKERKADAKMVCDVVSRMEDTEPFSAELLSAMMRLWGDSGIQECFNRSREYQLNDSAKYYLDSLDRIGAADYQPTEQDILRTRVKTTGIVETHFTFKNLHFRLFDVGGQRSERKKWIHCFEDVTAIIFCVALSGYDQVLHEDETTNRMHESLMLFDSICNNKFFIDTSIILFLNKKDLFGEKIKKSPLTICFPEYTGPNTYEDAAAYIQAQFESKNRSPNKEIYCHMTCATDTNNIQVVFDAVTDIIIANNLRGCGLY

Molecular target: Guanine nucleotide-binding protein G(o) subunit alpha (Homo sapiens) (UniProt P09471)
Test: RGS7-Galphao binding modulators, primary screen, biochemical, multiplexed bead flow cytometry (AID 1439);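 note: fluorescent Galphao held in activated GDP-AlF4 state binding bead-coupled RGS7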
Conditions: at 10 µM, actives lie on both sides

SMILES | binding response (% of control)
CC1CN(C(=O)COC(=O)c2cc(Cl)ccc2Cl)CC(C)O1 (centres undefined) | inconclusive: 89.7%
O=C1OCC/C1=C\c1ccc2c(c1)OCO2 | inconclusive: -35.4%
COC(=O)Cc1nc(Nc2ccccc2)sc1C | inconclusive: 82.3%
Cn1nc(C(=O)Nc2ccc(S(=O)(=O)N3CCOCC3)cc2)c2ccccc2c1=O | inconclusive: 111%
Cc1cc(Cl)ccc1OCC(=O)Nc1ccccc1NS(=O)(=O)c1cccs1 | inconclusive: 102%
COc1ccc(C(=O)N/N=C/c2ccc(OC)c(CN3CCc4cc(OC)c(OC)cc4C3C)c2)cc1 (centres undefined) | inactive: 108%
O=C(CCN1CCN(c2ccccc2)CC1)N/N=C/c1ccc([N+](=O)[O-])o1 | inconclusive: 91.5%
CCCCC(CC)C1OCC(CN2CCCCC2)O1 (centres undefined) | inconclusive: 51.1%
c1ccc(Cn2c(CSc3nnnn3-c3ccccc3)nc3ccccc32)cc1 | inactive: 97.1%
CCCCCCCc1n[nH]c(=S)n1Cc1ccccc1 | inconclusive: 52.1%
O=C(/C=C/c1cccnc1)c1ccccc1O | inconclusive: 102%
CC(CN1CCCCC1)C(=O)NNC(=O)C12CC3CC(CC(C3)C1)C2 (centres undefined) | inactive: 105%
Cc1cc2c(cc(C(=O)N3CCC(C(=O)NC4CCCC4)CC3)n2Cc2c(F)cccc2Cl)o1 | inconclusive: 104%
CC(C)Cc1nnc(NC(=O)CSc2nc(O)c(Cc3ccccc3)c(=O)[nH]2)s1 | inconclusive: 110%
COc1ccc2c(c1)CC1c3c(cc4c(c3-2)OCO4)CC[N+]1(C)[O-] (centres undefined) | inconclusive: 48.8%
Cc1cccc(-c2ncc(S(=O)(=O)C(C)(C)C)c(N)n2)c1 | inconclusive: 267%
CCOC(=O)c1[nH]ncc1CN1CCCC(C(=O)c2ccc(C(C)(C)C)cc2)C1 (centres undefined) | inactive: 112%
NS(=O)(=O)c1ccc(CNC(=O)c2csc3c2CCCC3)cc1 | inactive: 95.8%
CC1(c2ccc(C#N)cc2)NC(=O)N(CC(=O)Nc2cc(S(=O)(=O)N3CCOCC3)ccc2Cl)C1=O (centres undefined) | inactive: 99.4%
O=C(CN(Cc1ccco1)C(=O)c1ccccc1)Nc1ccc(Cl)c(Cl)c1 | inactive: 99%
O=C1CCN(CCc2ccccc2)CCN1CCSc1ccc(Br)cc1 | inconclusive: 96.4%
O=c1ccn(CCCBr)c(=O)[nH]1 | inconclusive: 290%

A draw from above in order of count of non-hydrogen atoms, largest number first.
SMILES | binding response (% of control)
CC1(c2ccc(C#N)cc2)NC(=O)N(CC(=O)Nc2cc(S(=O)(=O)N3CCOCC3)ccc2Cl)C1=O (centres undefined) | inactive: 99.4%
Cn1nc(C(=O)Nc2ccc(S(=O)(=O)N3CCOCC3)cc2)c2ccccc2c1=O | inconclusive: 111%
CCOC(=O)c1[nH]ncc1CN1CCCC(C(=O)c2ccc(C(C)(C)C)cc2)C1 (centres undefined) | inactive: 112%
Cc1cc(Cl)ccc1OCC(=O)Nc1ccccc1NS(=O)(=O)c1cccs1 | inconclusive: 102%
O=C(CN(Cc1ccco1)C(=O)c1ccccc1)Nc1ccc(Cl)c(Cl)c1 | inactive: 99%
COc1ccc2c(c1)CC1c3c(cc4c(c3-2)OCO4)CC[N+]1(C)[O-] (centres undefined) | inconclusive: 48.8%
NS(=O)(=O)c1ccc(CNC(=O)c2csc3c2CCCC3)cc1 | inactive: 95.8%
Cc1cccc(-c2ncc(S(=O)(=O)C(C)(C)C)c(N)n2)c1 | inconclusive: 267%
CCCCC(CC)C1OCC(CN2CCCCC2)O1 (centres undefined) | inconclusive: 51.1%
COC(=O)Cc1nc(Nc2ccccc2)sc1C | inconclusive: 82.3%
O=c1ccn(CCCBr)c(=O)[nH]1 | inconclusive: 290%

More results.

SMILES | binding response (% of control)
CCOC(=O)/C(=C/c1cn(C)c2ccccc12)NC(=O)c1ccccc1 | inconclusive: 106%
CC(=O)NC(Cc1ccc(F)cc1)C(=O)NC1CCN(c2ncccc2[N+](=O)[O-])CC1 (centres undefined) | inconclusive: 106%
COC(=O)c1c(C)[nH]c(C(=O)/C=C/c2ccccc2Cl)c1C | inconclusive: 98.3%
Cc1nc2ccc(C(=O)Nc3cccc([N+](=O)[O-])c3)cc2s1 | inconclusive: 93.8%
Cc1cccc(-n2c(SCC(=O)N3CCCC3)nc3n[nH]c(C)c3c2=N)c1 | inactive: 99%
CC(C)COP(=O)(OCC(C)C)C(O)c1ccc2c(c1)OCO2 (centres undefined) | inconclusive: 110%
CN(C)NC(=S)NC1CCS(=O)(=O)C1 (centres undefined) | inconclusive: 116%
CC(C)(CC(=O)O)CC(=O)Nc1cc(C(F)(F)F)cc(C(F)(F)F)c1 | inconclusive: 32.2%
COCCN1C(=O)C(=O)/C(=C(/O)c2ccc(S(=O)(=O)N3CCOCC3)cc2)C1c1cccc(Cl)c1 (centres undefined) | inconclusive: 185%
Cc1ccc(C(=O)N(c2ccccc2)C2CC(C)N(C(=O)c3ccco3)c3ccccc32)cc1 (centres undefined) | inactive: 103%
O=C(Nn1c(-c2ccccc2)nc2ccccc2c1=O)c1cccs1 | inactive: 96.7%
Cc1ccc(C(=O)N2CCC3(CC2)Oc2ccc(F)cc2C(=O)C32CC(c3ccccc3)=NO2)s1 (centres undefined) | inconclusive: 107%
O=[N+]([O-])c1ccc2c(c1)nc1n2CCN(c2ccccc2)C1 | inconclusive: 83.2%
CC1CCN(S(=O)(=O)N2CCC(C(=O)NCc3cccnc3)CC2)CC1 | inconclusive: 91.5%
COc1nc(C)ccc1-c1noc(-c2cccs2)n1 | inconclusive: 82.6%
COc1ccc(S(=O)(=O)N2CCCC(C(=O)NCCC(C)C)C2)cc1 (centres undefined) | inconclusive: 95.7%
O=C(Cc1ccccc1)N1CCC(c2ccccc2)C1 (centres undefined) | inconclusive: 262%
CC(=O)NC(Cc1ccccc1C)C(=O)NC1CCN(c2nnnn2-c2ccccc2)CC1 (centres undefined) | inconclusive: 103%
CC1(c2nnc(-c3ccc(Cl)cc3)o2)CC(c2ccncc2)=NO1 (centres undefined) | inconclusive: 99.8%
COc1cc(/C=N/NC(=O)c2ccc(-n3cccc3)cc2)ccc1O | active: 16%
CC1CC(C)(C)NC(=S)N1CCC(=O)Nc1ccc2c(c1)OCCO2 (centres undefined) | inconclusive: 93.1%
Cc1onc(-c2ccccc2)c1C(=O)Nc1ccc(S(=O)(=O)Nc2nccs2)cc1 | inconclusive: 102%
